# Measured values taken from publication PMC5253658 (2017).
# B1: GST-SCIMP-T1 (entire intracellular region of murine SCIMP, amino acids 29-150) [mouse] / His-TLR4-TIR (cytoplasmic TIR domain of mouse TLR4, amino acids 670-835) [mouse] (parent complex)
# chain 1: CVCRWQLRQGRNWEIAKPSKQDGRDEEKMYENVLNSSPGQLPALPPRGSPFPGDLAPQEAPRQPSAWYSSVKKVRNKKVFAISGSTEPENDYDDVEIPATTETQHSKTTPFWQAEVGLHSSF
# chain 2: SIYDAFVIYSSQNEDWVRNELVKNLEEGVPRFHLCLHYRDFIPGVAIAANIIQEGFHKSRKVIVVVSRHFIQSRWCIFEYEIAQTWQFLSSRSGIIFIVLEKVEKSLLRQQVELYRLLSRNTYLEWEDNPLGRHIFWRRLKNALLDGKASNPEQTAEEEQETATWT
# Variants of: B1
# Experiment: GST pull-down, immunoblot densitometry; parent: 100; read off a plot
row,percent of parent [%],Variant
1,~16,chain 1 W67A
2,~140,chain 1 Y68F

# The next lines start with the variant.
row,Variant,percent of parent [%]
1,chain 1 S69A,~100
2,chain 1 S70A,~79
3,chain 1 V71A,~120
